Data published in the supplement of paper PMC10849652.
This is one part of the list.

By UniProt entry, the sequences of proteins in these tests, tags left out. Where a name states a change or a piece, a line headed by the entry shows the natural chain unless it says otherwise.
UniProt Q70UQ0: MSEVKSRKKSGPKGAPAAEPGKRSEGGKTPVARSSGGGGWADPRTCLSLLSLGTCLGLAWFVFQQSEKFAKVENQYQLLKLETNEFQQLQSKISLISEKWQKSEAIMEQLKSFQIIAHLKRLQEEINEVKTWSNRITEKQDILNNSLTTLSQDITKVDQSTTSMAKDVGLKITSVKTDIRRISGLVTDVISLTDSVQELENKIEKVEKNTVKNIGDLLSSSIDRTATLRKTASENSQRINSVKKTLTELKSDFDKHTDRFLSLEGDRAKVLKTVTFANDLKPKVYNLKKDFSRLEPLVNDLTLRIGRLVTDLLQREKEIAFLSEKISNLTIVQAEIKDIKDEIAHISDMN
UniProt C9J406: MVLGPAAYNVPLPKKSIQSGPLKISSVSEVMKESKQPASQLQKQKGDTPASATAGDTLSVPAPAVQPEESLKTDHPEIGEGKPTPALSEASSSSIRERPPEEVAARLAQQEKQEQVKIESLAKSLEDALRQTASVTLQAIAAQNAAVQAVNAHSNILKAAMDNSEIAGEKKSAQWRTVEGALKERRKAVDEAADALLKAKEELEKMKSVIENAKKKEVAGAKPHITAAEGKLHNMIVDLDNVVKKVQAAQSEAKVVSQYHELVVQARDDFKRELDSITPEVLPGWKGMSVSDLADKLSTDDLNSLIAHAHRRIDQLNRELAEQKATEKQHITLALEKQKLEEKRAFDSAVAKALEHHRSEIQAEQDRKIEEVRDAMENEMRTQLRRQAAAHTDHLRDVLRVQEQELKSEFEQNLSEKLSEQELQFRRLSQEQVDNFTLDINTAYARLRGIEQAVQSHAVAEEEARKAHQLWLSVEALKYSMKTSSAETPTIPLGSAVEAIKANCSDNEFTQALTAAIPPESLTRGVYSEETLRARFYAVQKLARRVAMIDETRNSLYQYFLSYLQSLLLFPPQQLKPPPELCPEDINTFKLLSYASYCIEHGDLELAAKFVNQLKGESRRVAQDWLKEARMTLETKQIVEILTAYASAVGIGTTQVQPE
UniProt Q9H6K1: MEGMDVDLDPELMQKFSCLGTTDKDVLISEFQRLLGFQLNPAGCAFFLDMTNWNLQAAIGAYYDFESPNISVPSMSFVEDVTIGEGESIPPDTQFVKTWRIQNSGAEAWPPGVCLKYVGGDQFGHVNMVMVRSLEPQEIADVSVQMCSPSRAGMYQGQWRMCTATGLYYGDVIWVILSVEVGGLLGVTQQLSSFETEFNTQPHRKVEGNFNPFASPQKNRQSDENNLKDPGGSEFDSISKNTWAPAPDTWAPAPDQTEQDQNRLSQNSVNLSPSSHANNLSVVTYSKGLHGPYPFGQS
UniProt Q9P2D0: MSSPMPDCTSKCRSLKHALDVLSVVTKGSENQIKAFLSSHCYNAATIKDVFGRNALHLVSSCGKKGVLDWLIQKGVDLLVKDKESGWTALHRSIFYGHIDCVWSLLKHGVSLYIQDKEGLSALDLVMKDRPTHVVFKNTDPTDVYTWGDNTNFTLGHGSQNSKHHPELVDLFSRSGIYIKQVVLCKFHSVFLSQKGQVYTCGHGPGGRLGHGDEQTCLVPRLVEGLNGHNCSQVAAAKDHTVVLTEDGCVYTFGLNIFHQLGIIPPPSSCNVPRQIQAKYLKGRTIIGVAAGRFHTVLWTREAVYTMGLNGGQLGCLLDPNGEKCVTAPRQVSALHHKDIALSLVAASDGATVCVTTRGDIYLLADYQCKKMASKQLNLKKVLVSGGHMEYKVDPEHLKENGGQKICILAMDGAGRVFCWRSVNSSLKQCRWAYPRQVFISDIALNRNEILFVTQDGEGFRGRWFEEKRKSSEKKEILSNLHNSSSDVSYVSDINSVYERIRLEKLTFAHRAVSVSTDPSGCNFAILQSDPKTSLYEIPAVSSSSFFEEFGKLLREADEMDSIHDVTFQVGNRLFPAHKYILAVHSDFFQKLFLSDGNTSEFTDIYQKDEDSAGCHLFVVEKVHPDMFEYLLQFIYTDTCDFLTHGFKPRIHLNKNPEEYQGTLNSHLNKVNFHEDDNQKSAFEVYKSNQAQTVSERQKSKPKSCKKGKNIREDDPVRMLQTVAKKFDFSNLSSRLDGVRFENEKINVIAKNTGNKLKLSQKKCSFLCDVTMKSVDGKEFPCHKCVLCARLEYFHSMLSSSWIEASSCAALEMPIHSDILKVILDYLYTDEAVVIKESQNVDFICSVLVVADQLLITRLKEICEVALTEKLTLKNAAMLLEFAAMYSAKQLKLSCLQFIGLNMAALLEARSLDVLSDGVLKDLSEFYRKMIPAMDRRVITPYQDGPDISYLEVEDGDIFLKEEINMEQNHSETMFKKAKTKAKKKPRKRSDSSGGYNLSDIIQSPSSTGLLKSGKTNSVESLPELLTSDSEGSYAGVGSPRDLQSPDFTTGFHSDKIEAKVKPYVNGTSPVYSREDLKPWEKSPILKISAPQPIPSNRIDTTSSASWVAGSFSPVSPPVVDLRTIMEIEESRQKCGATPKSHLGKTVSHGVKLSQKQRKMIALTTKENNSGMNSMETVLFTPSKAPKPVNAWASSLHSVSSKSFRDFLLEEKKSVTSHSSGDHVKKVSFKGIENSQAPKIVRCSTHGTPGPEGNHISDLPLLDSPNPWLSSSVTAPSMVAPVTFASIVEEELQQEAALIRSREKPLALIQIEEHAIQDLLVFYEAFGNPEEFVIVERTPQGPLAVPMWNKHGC
UniProt O75054: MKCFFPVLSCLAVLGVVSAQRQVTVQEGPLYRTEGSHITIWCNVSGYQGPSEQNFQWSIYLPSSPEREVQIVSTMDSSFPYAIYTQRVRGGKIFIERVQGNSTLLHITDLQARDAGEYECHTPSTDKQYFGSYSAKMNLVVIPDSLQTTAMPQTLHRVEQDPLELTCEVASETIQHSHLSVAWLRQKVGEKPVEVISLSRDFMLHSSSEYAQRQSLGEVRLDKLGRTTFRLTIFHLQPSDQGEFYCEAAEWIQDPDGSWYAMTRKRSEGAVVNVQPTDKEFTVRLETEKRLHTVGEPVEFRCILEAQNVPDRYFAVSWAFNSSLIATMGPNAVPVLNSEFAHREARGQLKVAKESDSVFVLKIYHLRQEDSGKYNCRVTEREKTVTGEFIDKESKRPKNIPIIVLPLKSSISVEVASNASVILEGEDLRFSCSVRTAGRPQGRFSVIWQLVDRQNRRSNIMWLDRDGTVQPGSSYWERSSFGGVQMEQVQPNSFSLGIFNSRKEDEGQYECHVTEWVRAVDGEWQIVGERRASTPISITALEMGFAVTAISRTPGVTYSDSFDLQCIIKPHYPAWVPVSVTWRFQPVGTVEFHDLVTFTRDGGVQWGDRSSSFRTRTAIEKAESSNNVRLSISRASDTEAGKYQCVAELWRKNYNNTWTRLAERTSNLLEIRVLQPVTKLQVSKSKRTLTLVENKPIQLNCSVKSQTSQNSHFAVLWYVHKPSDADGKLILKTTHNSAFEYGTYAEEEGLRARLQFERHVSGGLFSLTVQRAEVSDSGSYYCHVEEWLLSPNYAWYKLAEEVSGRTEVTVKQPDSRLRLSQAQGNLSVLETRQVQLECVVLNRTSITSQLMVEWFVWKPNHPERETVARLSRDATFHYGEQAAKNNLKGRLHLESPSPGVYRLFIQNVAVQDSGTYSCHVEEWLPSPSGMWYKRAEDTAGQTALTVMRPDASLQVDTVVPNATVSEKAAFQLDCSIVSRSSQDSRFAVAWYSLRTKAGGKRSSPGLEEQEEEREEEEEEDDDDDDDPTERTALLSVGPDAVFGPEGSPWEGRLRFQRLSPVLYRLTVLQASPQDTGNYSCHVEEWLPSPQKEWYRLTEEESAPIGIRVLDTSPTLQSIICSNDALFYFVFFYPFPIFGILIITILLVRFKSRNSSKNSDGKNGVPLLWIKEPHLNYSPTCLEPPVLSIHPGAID
UniProt Q92598: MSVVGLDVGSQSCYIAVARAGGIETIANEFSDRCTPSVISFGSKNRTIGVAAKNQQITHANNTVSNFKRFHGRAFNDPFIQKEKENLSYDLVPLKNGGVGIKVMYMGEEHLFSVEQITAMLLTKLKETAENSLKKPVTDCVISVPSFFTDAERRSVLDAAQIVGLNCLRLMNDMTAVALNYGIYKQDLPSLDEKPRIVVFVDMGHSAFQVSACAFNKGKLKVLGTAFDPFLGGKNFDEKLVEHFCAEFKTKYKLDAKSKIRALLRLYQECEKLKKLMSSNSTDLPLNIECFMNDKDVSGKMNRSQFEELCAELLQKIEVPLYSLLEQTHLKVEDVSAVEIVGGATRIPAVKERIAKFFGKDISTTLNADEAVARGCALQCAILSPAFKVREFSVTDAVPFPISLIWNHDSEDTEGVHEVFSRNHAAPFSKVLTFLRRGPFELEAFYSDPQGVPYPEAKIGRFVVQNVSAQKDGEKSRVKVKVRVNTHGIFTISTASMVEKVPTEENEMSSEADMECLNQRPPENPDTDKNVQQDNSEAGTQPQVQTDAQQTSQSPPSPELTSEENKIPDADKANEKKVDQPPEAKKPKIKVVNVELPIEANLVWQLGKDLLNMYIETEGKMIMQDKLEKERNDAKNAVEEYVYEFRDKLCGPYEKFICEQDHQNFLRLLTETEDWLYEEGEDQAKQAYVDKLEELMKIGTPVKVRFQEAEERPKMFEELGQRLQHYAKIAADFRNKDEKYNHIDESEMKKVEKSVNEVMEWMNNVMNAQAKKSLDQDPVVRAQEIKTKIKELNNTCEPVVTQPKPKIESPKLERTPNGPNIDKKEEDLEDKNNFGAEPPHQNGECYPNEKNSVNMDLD
UniProt A1L0T0: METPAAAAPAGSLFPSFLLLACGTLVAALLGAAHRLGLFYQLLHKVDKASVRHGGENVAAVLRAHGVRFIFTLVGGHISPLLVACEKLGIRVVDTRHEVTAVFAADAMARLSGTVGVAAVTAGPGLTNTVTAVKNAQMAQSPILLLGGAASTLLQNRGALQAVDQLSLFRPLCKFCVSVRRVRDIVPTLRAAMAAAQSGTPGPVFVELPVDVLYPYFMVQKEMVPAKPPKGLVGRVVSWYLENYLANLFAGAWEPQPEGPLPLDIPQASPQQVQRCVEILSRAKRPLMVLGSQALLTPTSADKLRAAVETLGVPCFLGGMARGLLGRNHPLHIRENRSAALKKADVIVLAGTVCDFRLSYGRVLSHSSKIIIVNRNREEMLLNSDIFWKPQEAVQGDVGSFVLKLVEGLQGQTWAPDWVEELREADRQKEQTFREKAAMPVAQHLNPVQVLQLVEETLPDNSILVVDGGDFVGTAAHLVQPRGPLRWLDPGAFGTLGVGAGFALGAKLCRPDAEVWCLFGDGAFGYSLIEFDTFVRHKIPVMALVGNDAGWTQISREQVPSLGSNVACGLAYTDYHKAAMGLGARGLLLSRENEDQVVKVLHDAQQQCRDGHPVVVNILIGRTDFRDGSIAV
UniProt Q9NV31: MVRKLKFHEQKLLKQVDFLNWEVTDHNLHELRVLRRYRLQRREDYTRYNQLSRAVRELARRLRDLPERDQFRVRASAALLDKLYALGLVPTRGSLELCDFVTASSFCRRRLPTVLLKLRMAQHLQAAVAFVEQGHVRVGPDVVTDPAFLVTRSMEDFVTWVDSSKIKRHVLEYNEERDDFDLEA
UniProt Q9NVR2, whole entry, looked up: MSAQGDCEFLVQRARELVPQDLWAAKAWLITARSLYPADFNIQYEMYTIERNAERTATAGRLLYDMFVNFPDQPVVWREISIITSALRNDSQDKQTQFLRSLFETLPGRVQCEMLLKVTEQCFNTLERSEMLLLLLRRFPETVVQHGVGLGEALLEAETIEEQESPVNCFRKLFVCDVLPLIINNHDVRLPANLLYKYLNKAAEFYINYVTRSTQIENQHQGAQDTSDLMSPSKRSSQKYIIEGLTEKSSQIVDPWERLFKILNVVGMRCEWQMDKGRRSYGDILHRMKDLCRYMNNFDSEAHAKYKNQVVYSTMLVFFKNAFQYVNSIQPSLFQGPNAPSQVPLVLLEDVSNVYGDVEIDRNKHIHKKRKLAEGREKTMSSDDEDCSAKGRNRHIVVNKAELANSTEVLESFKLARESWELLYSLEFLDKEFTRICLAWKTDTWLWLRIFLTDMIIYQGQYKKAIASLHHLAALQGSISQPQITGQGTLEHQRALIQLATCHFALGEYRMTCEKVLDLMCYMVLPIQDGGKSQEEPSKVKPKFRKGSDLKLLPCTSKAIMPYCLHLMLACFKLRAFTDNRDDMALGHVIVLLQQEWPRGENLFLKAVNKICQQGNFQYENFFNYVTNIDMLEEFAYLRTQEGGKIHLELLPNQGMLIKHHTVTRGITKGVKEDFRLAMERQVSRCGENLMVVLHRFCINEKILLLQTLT

Columns and labels:
Test in all cases: log2 fold change, soluble protein after heating vs DMSO (PISA); higher = thermal stabilisation; K562 lysate, 10 uM; active = over 0.2 and 3.5 SD of the protein, either way, in both replicates (recomputed)
erlotinib = compound: C#Cc1cccc(Nc2ncnc3cc(OCCOC)c(OCCOC)cc23)c1 [erlotinib]
Procedure, shortened: (§1)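 To prepare the extract, K562 pellets were dounce-homogenised in PBS pH 7.4 with 1 mM MgCl2, giving crude material at 1 mg/mL protein. This was treated with 10 μM compound for 30 min, then heated in aliquots for 3 min over 48°C-58°C before pooling and addition of NP-40 to 0.5% at 4°C. Centrifugation at 21,000xg for 90 min left soluble protein in the supernatant, which TMTpro 16plex LC-MS/MS quantified with equalised channel sums. Results are log-two fold changes in thermal stability compared with solvent controls, from duplicates.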

[1] = compound: C/C(=N\NC(=O)C1=CC(=CC=C1)S(=O)(=O)N2CCOCC2)/C3=C(C=CC(=C3)Cl)O
Procedure, shortened: as §1

[2] = compound: C1=CC(=CC=C1C2=NC3=C(N2)C=C(C=C3)C(=O)N)OC4=CC=C(C=C4)Cl
Procedure, shortened: as §1

[3] = compound: C1=CC2=C(C=CC(=C2)/C=C\3/C(=O)NC(=NCC4=CC=CS4)S3)N=C1
Procedure, shortened: as §1

[4] = compound: C1=CC2=NC=CN=C2C=C1/C=C/3\C(=O)NC(=O)S3
Procedure, shortened: as §1

[5] = compound: C1=CC=C(C=C1)C2=NC(=C(N2)C3=CC=NC=C3)C4=CC(=C(C=C4)Cl)O
Procedure, shortened: as §1

[6] = compound: C1=CC=C2C(=C1)C3=NNC4=CC=CC(=C43)C2=O
Procedure, shortened: as §1

[7] = compound: C1CCN(C1)C(=O)NC2=CC=CC(=C2)NC3=NC=C(C(=N3)NCCC4=CN=CN4)Br
Procedure, shortened: as §1

[8] = compound: C1CN(CCC1(CC2=CC=C(C=C2)Cl)N)C3=NC=NC4=C3C=CN4
Procedure, shortened: as §1

IRAK-1-4 Inhibitor I = compound: C1COCCN1CCN2C3=CC=CC=C3N=C2NC(=O)C4=CC(=CC=C4)[N+](=O)[O-] [IRAK-1-4 Inhibitor I]
Procedure, shortened: as §1

ibrutinib = compound: C=CC(=O)N1CCC[C@@H](n2nc(-c3ccc(Oc4ccccc4)cc3)c3c(N)ncnc32)C1 [ibrutinib]
Procedure, shortened: as §1

[9] = compound: CC(=O)c1cnc2ccc(-c3cc(Cl)c(O)c(Cl)c3)nc2c1N[C@H]1CC[C@H](CN(C)C)CC1
Procedure, shortened: as §1

ralimetinib = compound: CC(C)(C)Cn1c(N)nc2ccc(-c3[nH]c(C(C)(C)C)nc3-c3ccc(F)cc3)nc21 [ralimetinib]
Procedure, shortened: as §1

[10] = compound: CC(C)(O)CC(=O)NCCn1ccc2ncnc(Nc3ccc(Oc4cccc(C(F)(F)F)c4)c(Cl)c3)c21
Procedure, shortened: as §1

[11] = compound: CC(C)C1=C2N=C(C=C(N2N=C1)NCC3=CC=CC=C3)NCCCCCCN
Procedure, shortened: as §1

[12] = compound: CC1=C(C(CC(=O)N1)C2=CC=C(C=C2)C(F)(F)F)C(=O)NC3=C(C=C4C(=C3)C=NN4)F
Procedure, shortened: as §1

[13] = compound: CC1=C(C2=C(C=C1)C(=O)C3=CC=CC=C3N2CCCN)C
Procedure, shortened: as §1

[14] = compound: CC1=C(C=C(C=C1)NC(=O)C2=CC(=CC=C2)C(C)(C)C#N)NC3=CC4=C(C=C3)N=CN(C4=O)C
Procedure, shortened: as §1

[15] = compound: CC1=C(C=C(C=C1)NC(=O)C2=CC(=CC=C2)N(C)C)NC(=O)C3=CC=C(C=C3)O
Procedure, shortened: as §1

[16] = compound: CC1=CC=C(C=C1)SC2=C3C=C(SC3=CN=C2)C(=O)N
Procedure, shortened: as §1

Measured: log2 fold change

INPP1 (UniProt P49441)
inactive: erlotinib -0.03 | [1] -0.045 | [2] -0.018 | [3] 0.049 | [4] 0.053 | [5] 0.007 | [6] -0.088 | [7] 0.028 | [8] 0.02 | IRAK-1-4 Inhibitor I -0.021 | ibrutinib -0.081 | [9] -0.02 | ralimetinib 0.003 | [10] -0.044 | [11] -0.01 | [12] 0.001 | [13] 0.008 | [14] -0.011 | [15] 0.005 | [16] 0.022

IKBIP (UniProt Q70UQ0)
inactive: erlotinib -0.004 | [1] 0.077 | [2] 0.002 | [3] -0.012 | [4] -0.028 | [5] -0.029 | [6] 0.005 | [7] -0.001 | [8] 0.006 | IRAK-1-4 Inhibitor I 0.037 | ibrutinib 0.013 | [9] 0.001 | ralimetinib 0.041 | [10] -0.049 | [11] -0.054 | [12] 0.109 | [13] 0.001 | [14] -0.074 | [15] -0.011 | [16] 0.019

IMMT (UniProt C9J406)
inactive: erlotinib 0.077 | [1] 0.041 | [2] -0.028 | [3] 0.001 | [4] 0.043 | [5] 0.028 | [6] -0.032 | [7] -0.222 | [8] 0.325 | IRAK-1-4 Inhibitor I -0.016 | ibrutinib 0.119 | [9] 0.046 | ralimetinib 0.126 | [10] -0.14 | [11] -0.096 | [12] 0.099 | [13] -0.03 | [14] -0.002 | [15] 0.012 | [16] -0.015

ILRUN (UniProt Q9H6K1)
inactive: erlotinib -0.004 | [1] 0.056 | [2] 0.004 | [3] -0.018 | [4] 0.016 | [5] 0.018 | [6] 0.011 | [7] 0.006 | [8] 0.033 | IRAK-1-4 Inhibitor I 0.02 | ibrutinib -0.002 | [9] -0.011 | ralimetinib 0.001 | [10] -0.019 | [11] 0.007 | [12] 0.035 | [13] -0.03 | [14] 0.009 | [15] 0.018 | [16] 0.02

IBTK (UniProt Q9P2D0)
inactive: erlotinib -0.042 | [1] 0.055 | [2] 0.013 | [3] 0.042 | [4] -0.043 | [5] -0.038 | [6] -0.072 | [7] 0.012 | [8] 0.004 | IRAK-1-4 Inhibitor I -0.024 | ibrutinib 0.027 | [9] -0.118 | ralimetinib 0.06 | [10] -0.018 | [11] 0.049 | [12] 0.015 | [13] -0.058 | [14] -0.013 | [15] 0.074 | [16] 0.01

IGSF3 (UniProt O75054)
inactive: erlotinib -0.015 | [1] -0.043 | [2] -0.015 | [3] 0.057 | [4] 0.038 | [5] -0.009 | [6] -0.002 | [7] -0.017 | [8] -0.011 | IRAK-1-4 Inhibitor I 0.03 | ibrutinib 0.063 | [9] -0.016 | ralimetinib 0.006 | [10] -0.038 | [11] -0.004 | [12] 0.028 | [13] -0.083 | [14] 0.012 | [15] 0 | [16] -0.043

HSPH1 (UniProt Q92598)
inactive: erlotinib -0.008 | [1] -0.026 | [2] 0.003 | [3] 0.009 | [4] -0.027 | [5] -0.009 | [6] -0.035 | [7] -0.004 | [8] -0.012 | IRAK-1-4 Inhibitor I -0.029 | ibrutinib -0.03 | [9] -0.014 | ralimetinib 0.001 | [10] -0.014 | [11] -0.004 | [12] 0.011 | [13] 0 | [14] -0.026 | [15] 0.018 | [16] 0.006

ILVBL (UniProt A1L0T0)
inactive: erlotinib 0 | [1] -0.054 | [2] 0.112 | [3] -0.03 | [4] -0.041 | [5] -0.013 | [6] -0.022 | [7] -0.035 | [8] 0.062 | IRAK-1-4 Inhibitor I 0.098 | ibrutinib 0.036 | [9] 0.012 | ralimetinib 0.013 | [10] -0.061 | [11] 0.009 | [12] -0.034 | [13] -0.003 | [14] -0.07 | [15] -0.034 | [16] 0.009

ILF2 (UniProt Q12905)
inactive: erlotinib -0.006 | [1] -0.101 | [2] 0.001 | [3] 0.004 | [4] -0.001 | [5] 0.005 | [6] -0.002 | [7] 0 | [8] 0.016 | IRAK-1-4 Inhibitor I 0.006 | ibrutinib 0 | [9] -0.02 | ralimetinib -0.017 | [10] -0.003 | [11] -0.003 | [12] 0.003 | [13] -0.068 | [14] 0.01 | [15] 0 | [16] -0.007

HSPA9 (UniProt P38646)
inactive: erlotinib -0.037 | [1] -0.009 | [2] 0.007 | [3] -0.018 | [4] -0.041 | [5] 0.003 | [6] -0.015 | [7] -0.007 | [8] -0.002 | IRAK-1-4 Inhibitor I -0.02 | ibrutinib -0.019 | [9] -0.007 | ralimetinib -0.016 | [10] 0.013 | [11] -0.006 | [12] -0.021 | [13] 0.016 | [14] -0.023 | [15] -0.005 | [16] -0.02

INPP5B (UniProt P32019)
inactive: erlotinib 0.021 | [1] 0.02 | [2] -0.004 | [3] 0.017 | [4] -0.01 | [5] 0.004 | [6] -0.034 | [7] -0.025 | [8] 0.029 | IRAK-1-4 Inhibitor I 0.025 | ibrutinib 0.019 | [9] 0.013 | ralimetinib -0.015 | [10] -0.052 | [11] -0.009 | [12] 0.04 | [13] -0.001 | [14] 0 | [15] 0.003 | [16] -0.001

IKBIP isoform 4 (UniProt Q70UQ0)
inactive: erlotinib -0.008 | [1] 0.01 | [2] 0 | [3] 0.026 | [4] -0.02 | [5] 0 | [6] -0.032 | [7] 0.02 | [8] 0.016 | IRAK-1-4 Inhibitor I 0.014 | ibrutinib 0.004 | [9] 0.019 | ralimetinib 0.022 | [10] -0.008 | [11] -0.016 | [12] 0.021 | [13] -0.014 | [14] 0.002 | [15] 0.022 | [16] 0.002

2 consecutive records from above, quoted:
ILVBL (UniProt A1L0T0)
inactive: erlotinib 0 | [1] -0.054 | [2] 0.112 | [3] -0.03 | [4] -0.041 | [5] -0.013 | [6] -0.022 | [7] -0.035 | [8] 0.062 | IRAK-1-4 Inhibitor I 0.098 | ibrutinib 0.036 | [9] 0.012 | ralimetinib 0.013 | [10] -0.061 | [11] 0.009 | [12] -0.034 | [13] -0.003 | [14] -0.07 | [15] -0.034 | [16] 0.009

ILF2 (UniProt Q12905)
inactive: erlotinib -0.006 | [1] -0.101 | [2] 0.001 | [3] 0.004 | [4] -0.001 | [5] 0.005 | [6] -0.002 | [7] 0 | [8] 0.016 | IRAK-1-4 Inhibitor I 0.006 | ibrutinib 0 | [9] -0.02 | ralimetinib -0.017 | [10] -0.003 | [11] -0.003 | [12] 0.003 | [13] -0.068 | [14] 0.01 | [15] 0 | [16] -0.007

(next part)

IMP3 (UniProt Q9NV31)
inactive: erlotinib -0.008 | [1] -0.109 | [2] 0.121 | [3] -0.082 | [4] 0.034 | [5] -0.006 | [6] -0.093 | [7] -0.03 | [8] 0.063 | IRAK-1-4 Inhibitor I 0.158 | ibrutinib 0.036 | [9] -0.087 | ralimetinib -0.002 | [10] 0.007 | [11] 0.037 | [12] 0.022 | [13] 0.147 | [14] 0.159 | [15] -0.077 | [16] 0.783

INTS10 (UniProt Q9NVR2)
inactive: erlotinib 0.008 | [1] 0.056 | [2] -0.001 | [3] 0.061 | [4] -0.044 | [5] 0.026 | [6] -0.061 | [7] -0.006 | [8] 0.044 | IRAK-1-4 Inhibitor I -0.004 | ibrutinib 0.079 | [9] 0.021 | ralimetinib 0.01 | [10] -0.02 | [11] -0.023 | [12] 0.036 | [13] 0 | [14] 0.002 | [15] -0.014 | [16] 0.036

IK (UniProt Q13123)
inactive: erlotinib -0.037 | [1] 0.004 | [2] 0.021 | [3] -0.001 | [4] 0.026 | [5] 0.052 | [6] 0.017 | [7] -0.014 | [8] 0.01 | IRAK-1-4 Inhibitor I 0.027 | ibrutinib -0.003 | [9] 0.071 | ralimetinib -0.023 | [10] -0.006 | [11] 0.011 | [12] -0.005 | [13] -0.022 | [14] 0.027 | [15] -0.007 | [16] 0.072

IFT80 isoform 3 (UniProt Q9P2H3)
inactive: erlotinib -0.009 | [1] -0.077 | [2] 0.009 | [3] -0.054 | [4] 0.106 | [5] -0.06 | [6] -0.099 | [7] -0.009 | [8] 0.045 | IRAK-1-4 Inhibitor I -0.048 | ibrutinib -0.058 | [9] 0.105 | ralimetinib -0.018 | [10] -0.079 | [11] -0.001 | [12] -0.103 | [13] -0.095 | [14] -0.1 | [15] -0.01 | [16] 0.005
